Laboratory results as given in the supplement of paper PMC11732987, “Enantioselective OTUD7B fragment discovery through chemoproteomics screening and high-throughput optimisation” (Communications Chemistry, 2025).
This is one part of the list. The data scatter; read single values as rough.

Protein sequences, listed by entry. Tags and fused reporters are not part of them. Lines headed by an entry give the natural chain unless they say otherwise; changes in a name come on top. Residues count along the entry.
UniProt Q5JRA6: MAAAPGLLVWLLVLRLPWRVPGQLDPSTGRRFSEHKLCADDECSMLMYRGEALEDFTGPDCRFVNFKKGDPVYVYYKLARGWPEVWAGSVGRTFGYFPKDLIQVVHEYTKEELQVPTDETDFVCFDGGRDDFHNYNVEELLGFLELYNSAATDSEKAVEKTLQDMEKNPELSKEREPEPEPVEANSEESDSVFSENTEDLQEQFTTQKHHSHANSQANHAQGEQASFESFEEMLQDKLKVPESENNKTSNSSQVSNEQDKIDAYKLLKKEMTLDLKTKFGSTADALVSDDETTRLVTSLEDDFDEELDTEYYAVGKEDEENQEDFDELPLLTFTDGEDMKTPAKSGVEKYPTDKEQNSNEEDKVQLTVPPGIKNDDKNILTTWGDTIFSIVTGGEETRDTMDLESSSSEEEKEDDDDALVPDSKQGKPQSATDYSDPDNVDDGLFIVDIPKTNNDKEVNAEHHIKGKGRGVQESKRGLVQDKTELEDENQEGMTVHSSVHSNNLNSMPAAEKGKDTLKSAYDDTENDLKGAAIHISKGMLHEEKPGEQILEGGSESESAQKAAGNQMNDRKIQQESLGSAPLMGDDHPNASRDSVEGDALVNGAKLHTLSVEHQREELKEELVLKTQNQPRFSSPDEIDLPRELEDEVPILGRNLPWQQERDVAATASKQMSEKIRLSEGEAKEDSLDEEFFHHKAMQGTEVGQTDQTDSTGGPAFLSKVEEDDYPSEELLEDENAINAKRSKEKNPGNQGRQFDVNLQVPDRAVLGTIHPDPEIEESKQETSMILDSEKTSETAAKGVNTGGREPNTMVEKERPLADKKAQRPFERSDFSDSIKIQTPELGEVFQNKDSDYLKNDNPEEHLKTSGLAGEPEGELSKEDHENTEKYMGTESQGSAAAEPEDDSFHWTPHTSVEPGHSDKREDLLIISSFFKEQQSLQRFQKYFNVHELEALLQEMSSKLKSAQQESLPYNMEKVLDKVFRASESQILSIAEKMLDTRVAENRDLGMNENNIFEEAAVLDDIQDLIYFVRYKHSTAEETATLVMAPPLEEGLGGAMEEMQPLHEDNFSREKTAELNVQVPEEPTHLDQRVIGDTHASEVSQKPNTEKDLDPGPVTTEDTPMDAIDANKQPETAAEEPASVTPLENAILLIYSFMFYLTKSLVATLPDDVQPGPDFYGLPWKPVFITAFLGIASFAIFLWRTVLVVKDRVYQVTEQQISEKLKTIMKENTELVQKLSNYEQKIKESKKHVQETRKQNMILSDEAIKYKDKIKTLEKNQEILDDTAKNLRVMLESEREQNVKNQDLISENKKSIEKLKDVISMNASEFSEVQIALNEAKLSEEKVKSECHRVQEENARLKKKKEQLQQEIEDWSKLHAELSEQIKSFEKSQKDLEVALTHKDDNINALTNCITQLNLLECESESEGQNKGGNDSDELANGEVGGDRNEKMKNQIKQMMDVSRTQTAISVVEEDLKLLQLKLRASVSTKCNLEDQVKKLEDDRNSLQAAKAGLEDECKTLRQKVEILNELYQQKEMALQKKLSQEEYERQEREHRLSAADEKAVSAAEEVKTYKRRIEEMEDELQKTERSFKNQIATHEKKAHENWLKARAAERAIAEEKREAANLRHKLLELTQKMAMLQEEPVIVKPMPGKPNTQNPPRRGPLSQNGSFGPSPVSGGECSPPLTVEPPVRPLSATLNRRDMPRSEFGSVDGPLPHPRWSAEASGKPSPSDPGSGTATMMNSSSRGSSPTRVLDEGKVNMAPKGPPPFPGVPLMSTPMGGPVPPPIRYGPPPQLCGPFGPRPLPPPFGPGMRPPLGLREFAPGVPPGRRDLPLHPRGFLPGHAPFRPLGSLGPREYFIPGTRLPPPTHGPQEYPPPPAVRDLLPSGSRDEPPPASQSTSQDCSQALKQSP
UniProt Q93074, whole entry, looked up: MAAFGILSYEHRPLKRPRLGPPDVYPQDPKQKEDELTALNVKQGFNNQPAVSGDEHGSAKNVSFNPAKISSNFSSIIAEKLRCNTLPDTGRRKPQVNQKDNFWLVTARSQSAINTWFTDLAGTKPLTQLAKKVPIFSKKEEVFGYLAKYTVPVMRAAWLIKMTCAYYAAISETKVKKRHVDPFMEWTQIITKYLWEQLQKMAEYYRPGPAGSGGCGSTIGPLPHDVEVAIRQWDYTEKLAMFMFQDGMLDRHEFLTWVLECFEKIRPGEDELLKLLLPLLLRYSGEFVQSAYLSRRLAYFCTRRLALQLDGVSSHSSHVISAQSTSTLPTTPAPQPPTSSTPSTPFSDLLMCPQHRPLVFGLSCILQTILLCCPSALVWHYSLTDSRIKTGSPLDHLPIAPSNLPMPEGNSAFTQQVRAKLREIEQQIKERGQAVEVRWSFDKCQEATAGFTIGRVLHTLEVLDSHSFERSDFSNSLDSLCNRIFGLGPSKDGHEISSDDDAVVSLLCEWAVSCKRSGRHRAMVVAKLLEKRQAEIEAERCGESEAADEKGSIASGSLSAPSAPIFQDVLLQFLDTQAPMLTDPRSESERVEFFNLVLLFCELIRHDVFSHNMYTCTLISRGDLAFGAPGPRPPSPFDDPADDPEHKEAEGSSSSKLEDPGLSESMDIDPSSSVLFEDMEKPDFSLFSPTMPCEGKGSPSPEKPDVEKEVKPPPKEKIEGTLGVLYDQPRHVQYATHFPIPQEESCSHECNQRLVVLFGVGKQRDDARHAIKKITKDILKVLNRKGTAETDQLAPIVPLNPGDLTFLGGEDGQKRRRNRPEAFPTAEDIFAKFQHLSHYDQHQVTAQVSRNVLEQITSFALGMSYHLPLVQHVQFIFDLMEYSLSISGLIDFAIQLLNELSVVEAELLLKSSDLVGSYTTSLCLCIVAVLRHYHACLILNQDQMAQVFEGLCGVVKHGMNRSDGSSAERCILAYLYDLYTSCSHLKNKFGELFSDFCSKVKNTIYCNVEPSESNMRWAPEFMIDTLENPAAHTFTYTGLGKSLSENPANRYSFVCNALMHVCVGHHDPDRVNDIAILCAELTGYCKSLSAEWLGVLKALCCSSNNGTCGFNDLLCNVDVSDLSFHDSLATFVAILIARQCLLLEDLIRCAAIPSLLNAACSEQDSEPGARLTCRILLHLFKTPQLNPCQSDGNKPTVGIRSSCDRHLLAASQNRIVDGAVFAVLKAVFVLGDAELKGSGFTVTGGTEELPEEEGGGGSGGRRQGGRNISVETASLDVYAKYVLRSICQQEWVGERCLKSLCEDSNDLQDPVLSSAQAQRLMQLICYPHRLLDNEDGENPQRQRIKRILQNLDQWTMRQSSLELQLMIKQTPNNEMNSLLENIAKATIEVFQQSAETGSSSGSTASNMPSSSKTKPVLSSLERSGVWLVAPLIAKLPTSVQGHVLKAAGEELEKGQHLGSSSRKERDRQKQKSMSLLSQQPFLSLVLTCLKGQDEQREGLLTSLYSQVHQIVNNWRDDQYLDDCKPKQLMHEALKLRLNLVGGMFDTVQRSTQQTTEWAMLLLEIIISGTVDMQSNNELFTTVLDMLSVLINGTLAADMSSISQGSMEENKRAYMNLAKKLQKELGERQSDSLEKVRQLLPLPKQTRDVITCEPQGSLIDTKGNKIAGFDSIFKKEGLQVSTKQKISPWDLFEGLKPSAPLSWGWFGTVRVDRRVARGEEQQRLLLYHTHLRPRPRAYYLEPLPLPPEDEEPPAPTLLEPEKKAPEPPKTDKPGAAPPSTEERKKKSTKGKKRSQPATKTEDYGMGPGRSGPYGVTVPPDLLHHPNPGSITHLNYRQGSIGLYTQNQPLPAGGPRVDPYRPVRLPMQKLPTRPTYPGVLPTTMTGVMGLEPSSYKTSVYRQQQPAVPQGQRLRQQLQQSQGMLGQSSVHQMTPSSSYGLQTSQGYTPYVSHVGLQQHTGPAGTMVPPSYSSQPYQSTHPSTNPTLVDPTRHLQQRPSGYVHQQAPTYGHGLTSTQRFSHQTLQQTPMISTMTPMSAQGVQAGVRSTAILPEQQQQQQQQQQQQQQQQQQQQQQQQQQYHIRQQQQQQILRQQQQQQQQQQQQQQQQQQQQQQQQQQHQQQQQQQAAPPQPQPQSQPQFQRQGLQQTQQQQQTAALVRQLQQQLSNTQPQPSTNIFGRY
UniProt Q8N5J2: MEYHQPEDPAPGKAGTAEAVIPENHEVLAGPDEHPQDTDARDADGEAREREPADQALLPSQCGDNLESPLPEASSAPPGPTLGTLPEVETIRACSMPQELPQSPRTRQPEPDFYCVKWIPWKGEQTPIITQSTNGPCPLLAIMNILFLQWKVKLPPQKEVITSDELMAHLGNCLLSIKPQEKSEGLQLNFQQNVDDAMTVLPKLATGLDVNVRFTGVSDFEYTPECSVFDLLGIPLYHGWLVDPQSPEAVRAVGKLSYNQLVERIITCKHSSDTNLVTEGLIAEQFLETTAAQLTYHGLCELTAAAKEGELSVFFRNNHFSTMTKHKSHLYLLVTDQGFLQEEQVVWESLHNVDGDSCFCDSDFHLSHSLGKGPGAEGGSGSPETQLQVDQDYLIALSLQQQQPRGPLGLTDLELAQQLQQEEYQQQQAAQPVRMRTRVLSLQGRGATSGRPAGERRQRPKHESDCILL
UniProt P50579, 111-131: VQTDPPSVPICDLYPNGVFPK
UniProt P22033: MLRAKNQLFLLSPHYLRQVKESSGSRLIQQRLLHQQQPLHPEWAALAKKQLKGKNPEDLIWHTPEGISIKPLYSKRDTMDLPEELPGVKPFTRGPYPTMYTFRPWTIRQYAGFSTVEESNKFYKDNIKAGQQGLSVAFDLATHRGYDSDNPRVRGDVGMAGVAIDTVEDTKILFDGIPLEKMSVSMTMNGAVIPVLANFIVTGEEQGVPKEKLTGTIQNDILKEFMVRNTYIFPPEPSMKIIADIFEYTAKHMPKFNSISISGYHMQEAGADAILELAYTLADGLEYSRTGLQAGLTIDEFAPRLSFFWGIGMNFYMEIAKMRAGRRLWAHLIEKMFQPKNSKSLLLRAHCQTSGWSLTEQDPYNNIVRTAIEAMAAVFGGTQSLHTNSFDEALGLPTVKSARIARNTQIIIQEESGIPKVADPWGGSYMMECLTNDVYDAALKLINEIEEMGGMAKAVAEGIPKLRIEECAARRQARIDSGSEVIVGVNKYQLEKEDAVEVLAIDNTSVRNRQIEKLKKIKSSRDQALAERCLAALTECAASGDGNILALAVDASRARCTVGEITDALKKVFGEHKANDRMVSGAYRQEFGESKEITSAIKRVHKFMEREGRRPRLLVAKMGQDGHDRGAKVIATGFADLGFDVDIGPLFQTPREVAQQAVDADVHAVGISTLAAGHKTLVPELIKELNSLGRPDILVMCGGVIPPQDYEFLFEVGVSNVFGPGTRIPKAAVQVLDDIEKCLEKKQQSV
UniProt Q15648, 428-449: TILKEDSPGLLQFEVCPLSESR
UniProt A1L020, 128-150: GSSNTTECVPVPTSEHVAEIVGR
UniProt O95140: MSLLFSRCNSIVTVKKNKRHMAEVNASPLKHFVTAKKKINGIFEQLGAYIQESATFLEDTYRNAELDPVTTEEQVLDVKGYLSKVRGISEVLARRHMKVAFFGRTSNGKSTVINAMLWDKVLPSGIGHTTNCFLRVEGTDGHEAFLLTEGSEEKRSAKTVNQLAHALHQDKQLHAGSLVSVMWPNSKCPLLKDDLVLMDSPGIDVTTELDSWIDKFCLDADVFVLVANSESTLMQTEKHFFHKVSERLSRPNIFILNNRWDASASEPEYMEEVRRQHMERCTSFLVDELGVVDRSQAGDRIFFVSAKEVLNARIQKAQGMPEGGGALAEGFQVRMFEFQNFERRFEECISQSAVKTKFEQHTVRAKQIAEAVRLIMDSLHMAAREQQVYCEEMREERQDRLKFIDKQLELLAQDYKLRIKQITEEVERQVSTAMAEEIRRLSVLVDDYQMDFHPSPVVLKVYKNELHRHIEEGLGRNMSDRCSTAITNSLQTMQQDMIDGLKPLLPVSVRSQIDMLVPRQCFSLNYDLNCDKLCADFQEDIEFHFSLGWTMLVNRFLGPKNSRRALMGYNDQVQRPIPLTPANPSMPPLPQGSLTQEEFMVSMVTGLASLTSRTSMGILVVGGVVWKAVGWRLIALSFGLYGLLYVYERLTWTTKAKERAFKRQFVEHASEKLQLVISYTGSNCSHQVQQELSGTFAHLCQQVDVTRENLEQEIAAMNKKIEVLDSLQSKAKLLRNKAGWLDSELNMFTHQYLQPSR
UniProt Q9NV56, whole entry, looked up: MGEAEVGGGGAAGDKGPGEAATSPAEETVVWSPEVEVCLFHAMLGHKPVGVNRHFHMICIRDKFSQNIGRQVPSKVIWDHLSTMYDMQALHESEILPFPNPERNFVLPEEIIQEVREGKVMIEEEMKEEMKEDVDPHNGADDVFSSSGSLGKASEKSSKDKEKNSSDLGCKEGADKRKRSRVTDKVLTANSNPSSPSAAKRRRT
UniProt Q00013, 228-247: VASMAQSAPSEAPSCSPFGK
UniProt Q9BWT6: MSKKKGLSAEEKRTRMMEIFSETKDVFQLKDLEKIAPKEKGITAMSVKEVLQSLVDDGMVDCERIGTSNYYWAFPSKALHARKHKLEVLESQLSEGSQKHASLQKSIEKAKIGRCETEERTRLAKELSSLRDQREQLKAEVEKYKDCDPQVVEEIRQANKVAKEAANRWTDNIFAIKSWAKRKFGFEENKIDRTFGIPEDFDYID

Columns and labels:
[1] = compound: ClCC(=O)N[C@@H]1CCCc2ccccc12; experiment: log2 mean competition ratio of IA-DTB cysteine labelling (DMSO/compound) (log2 ratio); higher = stronger cysteine engagement by compound; conditions: treatment time: 4 h, cell line lysate: HEK293T
Method: (§1)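 IA-DTB competitive cysteine chemoproteomics in HEK293T RIPA lysate. Lysates were treated with compound 29 or 30 at 50 or 200 µM for 4 h, then IA-DTB (500 µM, 1 h), trypsin-digested, NeutrAvidin-enriched and analysed by diaPASEF. Competition ratio = intensity DMSO / intensity compound (n=4 treated, n=64 DMSO); binding: mean log2 CR ≥ 1 and p ≤ 0.05 plus QC filters. Target is the cysteine site.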

[2] = compound: ClCC(=O)N[C@H]1CCCc2ccccc12; experiment: as above; conditions: treatment time: 4 h, cell line lysate: HEK293T
Method: as §1

| Target | log2 mean competition ratio ([1]; 50 µM) | log2 mean competition ratio ([1]; 200 µM) | log2 mean competition ratio ([2]; 50 µM) | log2 mean competition ratio ([2]; 200 µM) |
| --- | --- | --- | --- | --- |
| MKI67 C1843 (UniProt P46013) | -0.266 | 0.0167 | 0.164 | 0.0459 |
| MIA3 C1513 (UniProt Q5JRA6) | 0.0124 | -0.0679 | 0.146 | 0.0695 |
| MED12 C83 (UniProt Q93074) | -0.0959 | 0.00504 | -0.0319 | 0.000964 |
| MINDY1 C115 (UniProt Q8N5J2) | 0.244 | 0.201 | 0.217 | -0.0364 |
| MIA3 C61 (UniProt Q5JRA6) | 0.0632 | 0.0397 | 0.49 | -0.0412 |
| METAP2 C121 (UniProt P50579) | -0.279 | 0.24 | -0.439 | 0.0342 |
| MLH1 C494 (UniProt P40692) | -0.204 | -0.129 | 0.129 | 0.00108 |
| MDN1 C4259 (UniProt Q9NU22) | -0.0355 | -0.173 | -0.658 | -0.317 |
| MMUT C560 (UniProt P22033) | 0.00257 | 0.157 | -0.252 | 0.033 |
| MED1 C443 (UniProt Q15648) | -0.0272 | 0.531 | -0.325 | 0.125 |
| MEX3A C135 (UniProt A1L020) | -0.629 | 0.299 | -0.0815 | 0.103 |
| MERTK C640 (UniProt Q12866) | -0.451 | -0.439 | -0.361 | 0.204 |
| MORC3 C15 (UniProt Q14149) | -0.11 | 0.133 | -0.0297 | 0.159 |
| MRE11 C336 | 0.145 | -0.263 | -0.175 | -0.206 |
| MMACHC C149 (UniProt Q9Y4U1) | 0.107 | -0.422 | 0.174 | -0.221 |
| METTL7A C92 (UniProt Q9H8H3) | 0.104 | -0.124 | 0.112 | 0.0156 |
| MIEF1 C359 | -0.083 | 0.382 | -0.0631 | 0.404 |
| MDH2 C285 (UniProt P40926) | -0.246 | -0.101 | -0.284 | 0.304 |
| MINDY3 C27 (UniProt Q9H8M7) | 0.0666 | -0.122 | 0.0654 | 0.0015 |
| MLLT1 C5 (UniProt Q03111) | 0.0733 | -0.174 | 0.0657 | -0.291 |
| MED7 C223 (UniProt O43513) | -0.0777 | 0.187 | -0.0376 | -0.299 |
| MFN2 C348 (UniProt O95140) | 0.0894 | 0.237 | 0.148 | 0.0851 |

For convenience, some entries already given.

| Target | log2 mean competition ratio ([1]; 50 µM) | log2 mean competition ratio ([1]; 200 µM) | log2 mean competition ratio ([2]; 50 µM) | log2 mean competition ratio ([2]; 200 µM) |
| --- | --- | --- | --- | --- |
| MIA3 C1513 (UniProt Q5JRA6) | 0.0124 | -0.0679 | 0.146 | 0.0695 |
| MED12 C83 (UniProt Q93074) | -0.0959 | 0.00504 | -0.0319 | 0.000964 |
| MINDY1 C115 (UniProt Q8N5J2) | 0.244 | 0.201 | 0.217 | -0.0364 |
| MIA3 C61 (UniProt Q5JRA6) | 0.0632 | 0.0397 | 0.49 | -0.0412 |

(cont.)

| Target | log2 mean competition ratio ([1]; 50 µM) | log2 mean competition ratio ([1]; 200 µM) | log2 mean competition ratio ([2]; 50 µM) | log2 mean competition ratio ([2]; 200 µM) |
| --- | --- | --- | --- | --- |
| MOCS1 C218 (UniProt Q9NZB8) | 0.154 | 0.29 | 0.437 | 0.128 |
| MDN1 C2816 (UniProt Q9NU22) | 0.418 | 0.476 | -0.52 | 0.107 |
| METTL7B C96 (UniProt Q6UX53) | -0.0227 | 0.216 | -0.312 | 0.158 |
| MDN1 C309 (UniProt Q9NU22) | 0.129 | 0.0183 | 0.486 | 0.0935 |
| MOCS3 C412 (UniProt O95396) | 0.503 | 0.241 | 0.146 | 0.591 |
| MEPCE C429 (UniProt Q7L2J0) | -0.065 | 0.228 | -0.0446 | 0.195 |
| MRGBP C170 (UniProt Q9NV56) | -0.121 | 0.0167 | 0.103 | 0.161 |
| MET C1210 (UniProt P08581) | -0.0984 | 0.241 | 0.0627 | 0.178 |
| MOCS2 C182 | 0.24 | -0.0676 | 0.42 | 0.19 |
| MON1B C297 (UniProt Q7L1V2) | 0.0457 | 0.335 | 0.1 | 0.23 |
| MIX23 C74 | 0.0972 | -0.187 | -0.138 | -0.189 |
| MKI67 C226 (UniProt P46013) | -0.00679 | -0.0314 | 0.137 | 0.019 |
| MEPCE C324 (UniProt Q7L2J0) | 0.00657 | 0.207 | 0.25 | 0.31 |
| MDN1 C1011 (UniProt Q9NU22) | 0.266 | -0.225 | -0.268 | -0.315 |
| MORC4 C324 | 0.178 | 0.113 | 0.134 | 0.326 |
| MKNK1 C101 (UniProt Q9BUB5) | -0.0953 | -0.297 | 0.419 | 0.0583 |
| MID2 C286 | -0.814 | -0.153 | -0.0818 | 0.119 |
| METTL26 C63 (UniProt Q96S19) | -0.345 | 0.152 | 0.521 | -0.206 |
| MINDY1 C94 (UniProt Q8N5J2) | -0.00989 | -0.198 | 0.136 | -0.205 |
| MPP1 C242 (UniProt Q00013) | 0.00346 | -0.0605 | 0.459 | -0.154 |
| MND1 C62 (UniProt Q9BWT6) | -0.447 | -0.4 | -0.0499 | 0.21 |
| MGA C1402 (UniProt Q8IWI9) | -0.124 | -0.063 | 0.66 | 0.281 |
